Source: PMC7515736
These are yes or no findings as the source states them, for the method shown. For some of these results: In cells and extracts the contact can be indirect. Some results given as binding are weak or reduced against the parent protein; the word gives no strength.

Protein sequences, listed by entry. Tags and fused reporters are not part of them.
UniProt P17839: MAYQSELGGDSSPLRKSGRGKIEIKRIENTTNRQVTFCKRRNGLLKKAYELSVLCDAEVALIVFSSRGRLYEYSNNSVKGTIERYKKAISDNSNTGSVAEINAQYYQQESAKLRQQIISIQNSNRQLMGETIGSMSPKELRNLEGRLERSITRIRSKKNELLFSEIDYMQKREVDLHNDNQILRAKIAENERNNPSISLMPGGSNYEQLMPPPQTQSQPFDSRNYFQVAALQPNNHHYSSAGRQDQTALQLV

Key:
[1] = molecular target: SEP3^Δtet, SEP3 splice variant with deletion of amino acids 161-174, SEP3^Δtet-3xFLAG (Arabidopsis thaliana) (UniProt O22456); assay: native gel or EMSA; EMSA with Cy5-labelled 96-bp KNU promoter probes with two CArG boxes of varied spacing; proteins co-produced in wheat germ TnT without further purification; complexes seen as tetramer or dimer bands on DNA
[2] = molecular target: …3 (SEP3), SEP3-3xFLAG (Arabidopsis thaliana) (UniProt O22456); assay: as above
[3] = molecular target: SEP3^Δtet, SEP3 splice variant with deletion of amino acids 161-174, SEP3^Δtet-3xFLAG (Arabidopsis thaliana) (UniProt O22456); assay: co-IP; sequential immunoprecipitation of co-translated proteins from a 50 ul wheat germ TnT reaction: anti-FLAG magnetic beads (1 h, room temperature, PBS with 0.005% NP40 and proteinase inhibitors), elution with 3xFLAG peptide, then anti-c-Myc magnetic beads; Western blots after each step
[4] = molecular target: …3 (SEP3), SEP3-3xFLAG (Arabidopsis thaliana) (UniProt O22456); assay: as above

binding [1]: binds | binding [2]: binds | binding [3]: binds | binding [4]: binds
Substance: AGAMOUS (AG), AG-5xMyc (from UniProt P17839 1-252)
